Data taken from the supplement of paper PMC3334620.
The full ranking holds about 33,000 sequences; the median of “E-score (-0.5 to 0.5)” is about -8e-05, and the highest 2% start at about 0.23. Some of the results follow.

Each sequence was assayed against T1, Nrg2 (UniProt P38082) (assay: PBM E-score (8-mer binding enrichment) (E-score (-0.5 to 0.5)); higher = stronger / more preferred TF binding). Details: protein concentration: 100 nM; construct: GST-full length.
T1 sequence: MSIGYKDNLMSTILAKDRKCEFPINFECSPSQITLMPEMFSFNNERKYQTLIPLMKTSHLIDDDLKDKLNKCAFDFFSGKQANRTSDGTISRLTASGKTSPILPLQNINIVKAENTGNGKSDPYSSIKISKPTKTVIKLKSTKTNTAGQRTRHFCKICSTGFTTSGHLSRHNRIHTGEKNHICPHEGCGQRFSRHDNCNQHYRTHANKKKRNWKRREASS
Description: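 Universal 'all 10-mer' protein binding microarrays (Agilent AMADID 015681) probed with GST-tagged S. cerevisiae TFs (full-length or DBD) made by in vitro transcription/translation (PURExpress), about 100-200 nM. Bound TF was detected with fluorescent anti-GST. Each ungapped 8-mer (which stands for itself and its reverse complement) is scored by the PBM enrichment score (E-score), a modified Wilcoxon-Mann-Whitney statistic from -0.5 to +0.5, computed with the Universal PBM Analysis Suite. Scale: above 0.35 generally sequence-specific binding.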

Going from CTGCTTTA to CACCTGAA, the “PBM E-score” value falls from 0.23 to 0.0424.

Compared with GGACAGTA, CTACCGGA is lower in “PBM E-score” value: 0.129 for the first, 0.00436 for the second.

First: CACCTATC
Second: TCGGTTCA
The “PBM E-score” value of the first is higher: 0.0791 for the first, -0.286 for the second.

First: GCTCGACC
Second: CGGACTTC
The “PBM E-score” value of the first is higher: -0.0125 for the first, -0.133 for the second.

Compared with TAAAATAA, ACAGTAAT is higher in “PBM E-score” value: 0.00492 for the first, 0.113 for the second.

Going from CTGGTGCC to TGGACGAA, the “PBM E-score” value rises from -0.212 to 0.0736.

First: ACGCCCGT
Second: CGTTGAGC
The “PBM E-score” value of the first is higher: 0.00139 for the first, -0.0124 for the second.

First: ATACCATA
Second: CGACACCG
The “PBM E-score” value of the first is higher: 0.128 for the first, -0.23 for the second.

First: AGCTATGG
Second: CATTAAGG
The “PBM E-score” value of the first is lower: -0.0356 for the first, 0.154 for the second.

First: AAATAACT
Second: TACGTCCA
The “PBM E-score” value of the first is higher: 0.0562 for the first, -0.0712 for the second.

First: CATGAAAC
Second: ATCTGTAC
The “PBM E-score” value of the first is lower: 0.0945 for the first, 0.215 for the second.

First: ACGGCGAA
Second: GTCGACGA
The “PBM E-score” value of the first is higher: 0.148 for the first, 0.129 for the second.

Going from CCCTGGTA to CAACCTAA, the “PBM E-score” value falls from 0.0895 to 0.059.

Compared with GAAAGGCA, GGAGTGGA is lower in “PBM E-score” value: -0.0231 for the first, -0.105 for the second.

First: ACGCGATC
Second: ATGCCCAA
The “PBM E-score” value of the first is higher: 0.146 for the first, 0.0341 for the second.

Going from GCCGATGA to GGCTTCAC, the “PBM E-score” value falls from -0.0746 to -0.169.

Compared with GAGACACC, AGTCTGAT is higher in “PBM E-score” value: -0.0529 for the first, 0.0567 for the second.

First: CGAGGACA
Second: ATCTGGTG
The “PBM E-score” value of the first is higher: 0.108 for the first, -0.0125 for the second.

First: CATATAGA
Second: CTAAACGA
The “PBM E-score” value of the first is higher: 0.0434 for the first, 0.0423 for the second.

First: CTTCTCGA
Second: GACCTAAC
The “PBM E-score” value of the first is lower: 0.0205 for the first, 0.15 for the second.

Going from AAGTGTGT to GGAAAGGA, the “PBM E-score” value falls from -0.0253 to -0.147.

First: AACGCCGG
Second: ACAGTAGT
The “PBM E-score” value of the first is lower: -0.0471 for the first, 0.0965 for the second.

Going from CGTCTATA to CACGACCC, the “PBM E-score” value falls from -0.00075 to -0.00935.

Going from GCGTAGAA to ACTGTGTG, the “PBM E-score” value rises from -0.0145 to 0.0512.

Compared with ATTTTTAC, AACCTAGT is higher in “PBM E-score” value: -0.0741 for the first, -0.0561 for the second.

Compared with AGCTGCTG, ATGTTGTA is higher in “PBM E-score” value: 0.0508 for the first, 0.128 for the second.

First: CCGCCGGC
Second: CCGTCAGA
The “PBM E-score” value of the first is higher: -0.0351 for the first, -0.142 for the second.

First: ACACAAAA
Second: ACTGAAAC
The “PBM E-score” value of the first is lower: 0.0735 for the first, 0.198 for the second.

Compared with CTTTCCCC, ATCTGCTA is higher in “PBM E-score” value: -0.163 for the first, -0.022 for the second.

First: ACACGCCT
Second: CTCGCGCA
The “PBM E-score” value of the first is higher: -0.0556 for the first, -0.141 for the second.

First: GTGGTAGA
Second: AATGCGCG
The “PBM E-score” value of the first is lower: -0.137 for the first, 0.177 for the second.

Going from AGAAGCTA to CAAGGCGG, the “PBM E-score” value rises from -0.154 to -0.133.

First: ACGTTGAC
Second: GCAGGTAA
The “PBM E-score” value of the first is higher: -0.00444 for the first, -0.0383 for the second.

Going from GTCCCCAA to AATGGCAC, the “PBM E-score” value falls from 0.14 to -0.0263.

Compared with ATACCCAA, CCGTCGAC is lower in “PBM E-score” value: 0.132 for the first, 0.0126 for the second.

Going from CCCCAGGA to GCTGATAC, the “PBM E-score” value rises from -0.135 to -0.0795.

Compared with AATGACCG, ACCGGTGG is lower in “PBM E-score” value: -0.153 for the first, -0.381 for the second.

Compared with GGACTCAC, CCACAGAC is lower in “PBM E-score” value: 0.0235 for the first, -0.0308 for the second.

Compared with GAGGTCAC, CGACCCCC is lower in “PBM E-score” value: -0.0775 for the first, -0.372 for the second.

First: ATGAACCG
Second: ACGAAAGC
The “PBM E-score” value of the first is lower: -0.148 for the first, -0.0144 for the second.

First: AATCGTCG
Second: ACCTTAAG
The “PBM E-score” value of the first is lower: 0.00168 for the first, 0.0116 for the second.

Going from CCCCGAAA to TAATCACA, the “PBM E-score” value falls from 0.137 to 0.0304.

Compared with AATAGGTC, ACCGATTA is higher in “PBM E-score” value: 0.111 for the first, 0.156 for the second.

First: CTGATTGA
Second: AAACCACT
The “PBM E-score” value of the first is higher: -0.0639 for the first, -0.0847 for the second.

First: GCCCGGAC
Second: AATAGCGA
The “PBM E-score” value of the first is lower: -0.195 for the first, 0.162 for the second.

First: CCTCCGAA
Second: GAACAGGC
The “PBM E-score” value of the first is higher: -0.0597 for the first, -0.0749 for the second.

First: AATACCTG
Second: ACTCGCTA
The “PBM E-score” value of the first is lower: 0.0544 for the first, 0.0669 for the second.

Going from GCACTTCC to GCAATCAC, the “PBM E-score” value rises from -0.22 to -0.0277.

Compared with AATGAGGC, ATTCCCAC is higher in “PBM E-score” value: -0.0739 for the first, -0.0393 for the second.

Compared with AAAGGCGG, TAGGCAAA is lower in “PBM E-score” value: -0.0401 for the first, -0.0554 for the second.

Compared with ACATTTAA, ACGATATG is higher in “PBM E-score” value: 0.12 for the first, 0.222 for the second.

First: GCCCGCAC
Second: ATGTACGC
The “PBM E-score” value of the first is higher: 0.0493 for the first, 0.0402 for the second.

Compared with CTGACTCC, GCACGGTA is lower in “PBM E-score” value: -0.108 for the first, -0.162 for the second.

Going from ACGAGAAC to CTCTTAAC, the “PBM E-score” value falls from 0.0558 to 0.031.

Compared with ACCTGATC, AACGCTTG is higher in “PBM E-score” value: -0.0367 for the first, 0.0225 for the second.

Compared with TATCAAGA, ACAGAACC is lower in “PBM E-score” value: 0.156 for the first, -0.076 for the second.

First: TGTATAAA
Second: AAACCCTC
The “PBM E-score” value of the first is lower: 0.0257 for the first, 0.0534 for the second.

Compared with CAGCAACC, TACTATAA is higher in “PBM E-score” value: -0.157 for the first, 0.177 for the second.

First: CGAGAGCG
Second: CAGGCGCG
The “PBM E-score” value of the first is lower: 0.0292 for the first, 0.231 for the second.

First: CCGCTCCG
Second: ACTCGGAG
The “PBM E-score” value of the first is lower: -0.0142 for the first, 0.0921 for the second.

Going from ACCCATAT to GTTTACGA, the “PBM E-score” value falls from 0.15 to -0.00773.

Compared with AACGATGA, AGTTCCTA is higher in “PBM E-score” value: 0.0545 for the first, 0.0803 for the second.

Going from ACAGAAGC to GCCATGGC, the “PBM E-score” value falls from 0.0183 to -0.103.

First: CTCCCAGA
Second: ATACGAAC
The “PBM E-score” value of the first is lower: -0.253 for the first, 0.0999 for the second.

Going from GAGGGGGA to AGCACCCA, the “PBM E-score” value rises from -0.352 to -0.205.

Compared with GCCTGGGA, ACTGATCG is lower in “PBM E-score” value: -0.0475 for the first, -0.097 for the second.

Going from CATCGAAC to ACGGCAGA, the “PBM E-score” value falls from 0.227 to 0.1.

Compared with AAACTACA, AACTTAGT is higher in “PBM E-score” value: 0.147 for the first, 0.173 for the second.

Compared with ATCATGTG, CGGGATAC is lower in “PBM E-score” value: 0.0272 for the first, -0.0886 for the second.

First: GGCTCCCC
Second: ATAATGCG
The “PBM E-score” value of the first is lower: -0.249 for the first, 0.0621 for the second.

Going from CCTGTACC to AATGAGAA, the “PBM E-score” value rises from -0.0308 to -0.0126.

Compared with CCGACAAC, CCTGTCAC is higher in “PBM E-score” value: -0.0927 for the first, -0.0773 for the second.

Going from AGGTGGGC to AACCGTTC, the “PBM E-score” value rises from -0.117 to -0.0508.

First: AGTCGAAT
Second: ACCCACCT
The “PBM E-score” value of the first is higher: -0.0128 for the first, -0.124 for the second.

Compared with GTGAAGTA, CCCGAGGG is higher in “PBM E-score” value: -0.0907 for the first, -0.0412 for the second.

First: ATTTCGTC
Second: TATAACAA
The “PBM E-score” value of the first is lower: 0.158 for the first, 0.186 for the second.

Compared with CGGGGAGC, CGCACGAC is higher in “PBM E-score” value: -0.0803 for the first, -0.0564 for the second.

First: ATTGCACA
Second: GAGAAGTA
The “PBM E-score” value of the first is higher: 0.075 for the first, 0.0136 for the second.

Going from ATAAGCGA to ACGCACAC, the “PBM E-score” value falls from 0.0927 to 0.082.

First: AGTGTGAT
Second: CGTCACAG
The “PBM E-score” value of the first is lower: 0.0891 for the first, 0.282 for the second.

Compared with ACGTTAGA, CAGACGAC is higher in “PBM E-score” value: -0.121 for the first, -0.0246 for the second.

First: CAAACGCC
Second: AAGTCACA
The “PBM E-score” value of the first is higher: 0.0917 for the first, -0.0717 for the second.

Going from GGTTCCCA to GGAATGAC, the “PBM E-score” value falls from -0.0522 to -0.133.

Compared with CGCCGTTA, AAATCAGT is higher in “PBM E-score” value: -0.0337 for the first, -0.00024 for the second.

First: ATTGGAGC
Second: ATAACCAC
The “PBM E-score” value of the first is higher: 0.0568 for the first, 0.0331 for the second.

First: GTCACGAC
Second: CCCAACAG
The “PBM E-score” value of the first is higher: -0.0445 for the first, -0.098 for the second.
